The chains behind the UniProt entries cited, without tags or fusion partners.
UniProt P37231, whole entry: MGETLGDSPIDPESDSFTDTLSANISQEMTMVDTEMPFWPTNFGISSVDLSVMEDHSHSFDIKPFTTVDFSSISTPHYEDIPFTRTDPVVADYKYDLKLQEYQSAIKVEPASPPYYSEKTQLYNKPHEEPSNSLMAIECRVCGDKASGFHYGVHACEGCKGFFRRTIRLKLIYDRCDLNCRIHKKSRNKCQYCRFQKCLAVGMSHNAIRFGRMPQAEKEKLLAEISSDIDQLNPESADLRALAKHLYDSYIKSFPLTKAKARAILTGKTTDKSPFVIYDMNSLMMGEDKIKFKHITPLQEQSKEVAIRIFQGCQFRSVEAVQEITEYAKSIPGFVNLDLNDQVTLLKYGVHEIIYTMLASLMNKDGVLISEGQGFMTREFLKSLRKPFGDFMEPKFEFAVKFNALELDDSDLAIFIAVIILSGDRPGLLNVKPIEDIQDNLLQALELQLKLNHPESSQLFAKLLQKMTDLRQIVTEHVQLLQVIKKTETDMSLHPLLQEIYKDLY

According to patent publication US20020082263A1, “Heterocycle derivatives as PPAR-gamma agonists” (priority 2000, published 2002):

Biological target: PPAR-gamma (Homo sapiens, UniProt P37231)
Experiment: Reporter gene assay in transfected HepG2 cells: transcriptional activation of a PPRE via a PPAR-gamma mediated pathway
Type: cell-based
Settings: transfected human hepatoma (HepG2) cells, 36-48 h exposure, reporter gene activity

How did the EC50 turn out when COC(=O)CC1CN(Cc2cc(OC)cc(OC)c2)C(=O)[C@H](CC(C)C)N1C(=O)NC1CCCCC1 (stereo partly shown) was run?
Its EC50 is greater than 10 µM.

Structures were worked out from names or drawings and are uncertain.
